No constants are given. Whether binding was seen depends on the method and setting. Some results given as binding are weak or reduced against the parent protein; the word gives no strength.

The chains behind the UniProt entries cited, without tags or fusion partners.
UniProt Q9SAR1: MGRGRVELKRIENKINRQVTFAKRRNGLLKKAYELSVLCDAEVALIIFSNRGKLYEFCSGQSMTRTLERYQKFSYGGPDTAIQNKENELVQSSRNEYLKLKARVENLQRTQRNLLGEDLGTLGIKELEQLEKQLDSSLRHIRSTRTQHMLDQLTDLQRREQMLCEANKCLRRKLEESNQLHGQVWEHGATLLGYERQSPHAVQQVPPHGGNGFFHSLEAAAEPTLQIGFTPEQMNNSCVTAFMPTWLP
UniProt Q10CQ1: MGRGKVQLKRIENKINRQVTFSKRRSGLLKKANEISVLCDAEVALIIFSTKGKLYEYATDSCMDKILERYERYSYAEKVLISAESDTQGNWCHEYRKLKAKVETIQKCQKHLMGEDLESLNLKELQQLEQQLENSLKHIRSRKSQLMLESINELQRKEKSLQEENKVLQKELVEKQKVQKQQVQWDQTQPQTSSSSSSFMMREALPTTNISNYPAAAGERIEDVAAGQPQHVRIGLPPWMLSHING
UniProt Q6Q9I2: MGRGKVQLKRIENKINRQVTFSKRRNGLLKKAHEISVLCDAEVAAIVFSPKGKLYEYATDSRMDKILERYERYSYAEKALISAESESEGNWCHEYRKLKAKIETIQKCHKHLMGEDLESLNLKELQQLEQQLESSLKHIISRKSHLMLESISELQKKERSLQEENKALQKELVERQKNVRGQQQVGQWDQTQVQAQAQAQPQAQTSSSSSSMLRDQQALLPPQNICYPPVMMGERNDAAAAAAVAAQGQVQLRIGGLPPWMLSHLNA
UniProt Q0D4T4: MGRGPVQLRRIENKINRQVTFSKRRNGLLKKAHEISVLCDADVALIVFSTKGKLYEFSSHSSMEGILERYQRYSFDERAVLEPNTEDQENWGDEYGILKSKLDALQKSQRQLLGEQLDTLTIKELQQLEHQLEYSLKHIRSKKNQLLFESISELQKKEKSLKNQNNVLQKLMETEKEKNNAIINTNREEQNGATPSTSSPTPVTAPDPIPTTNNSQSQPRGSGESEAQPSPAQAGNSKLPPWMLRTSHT

Holding throughout (experiment): two-hybrid
Assay [1] deals with OsMADS8 (rice ortholog of SEP3), GAL4 BD fusion (rice (Oryza sativa L.)) (UniProt Q9SAR1).
For assay [2], the target named is OsMADS14 (rice ortholog of AP1), yeast two-hybrid fusions (rice (Oryza sativa L.)) (UniProt Q10CQ1).
Assay [3] deals with OsMADS15 (rice ortholog of AP1), yeast two-hybrid fusions (rice (Oryza sativa L.)) (UniProt Q6Q9I2).

Take “OsMADS14 (rice ortholog of AP1), yeast two-hybrid fusions (from UniProt Q10CQ1 1-246)”: the binding entry in assay [1] was “binds”.

With “OsMADS15 (rice ortholog of AP1), yeast two-hybrid fusions (from UniProt Q6Q9I2 1-267)”, the binding entry in assay [1] and in assay [2] was “binds” each time.

In the case of “OsMADS18 (rice ortholog of AP1), yeast two-hybrid fusions (from UniProt Q0D4T4 1-249)”, the binding result in assay [3], in assay [1] and in assay [2] was “binds” each time.
